Article PMC7278938, “The MKK-Dependent Phosphorylation of p38α Is Augmented by Arginine Methylation on Arg49/Arg149 during Erythroid Differentiation” (International Journal of Molecular Sciences, 2020)
No constants are given. Whether binding was seen depends on the method and setting. Binding seen in cells or lysates may run through a third protein. Some binding calls cover weakened binding; strength is not graded here.

Protein sequences, listed by entry. Tags and fused reporters are not part of them.
UniProt Q16539: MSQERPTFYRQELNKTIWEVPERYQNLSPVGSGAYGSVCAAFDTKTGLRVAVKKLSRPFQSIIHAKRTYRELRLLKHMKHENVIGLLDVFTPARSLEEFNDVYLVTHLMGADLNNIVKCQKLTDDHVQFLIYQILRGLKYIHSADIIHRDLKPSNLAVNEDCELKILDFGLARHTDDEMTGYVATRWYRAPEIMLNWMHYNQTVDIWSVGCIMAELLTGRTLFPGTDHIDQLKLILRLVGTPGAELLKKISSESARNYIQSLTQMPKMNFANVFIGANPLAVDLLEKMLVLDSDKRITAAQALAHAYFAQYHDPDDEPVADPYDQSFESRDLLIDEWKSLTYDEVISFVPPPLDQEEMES

Biological target: Flag-p38α wild type (UniProt Q16539 1-360)
Assay: co-IP; Flag-p38α immunoprecipitated with anti-Flag antibodies and protein G agarose at 4 °C from lysates (1 mg) of p38α-knockdown K562 cells after AraC (1 μM, 5 h); lysis buffer 150 mM NaCl, 20 mM Tris pH 7.4, 0.2% Triton X-100; partners detected by Western blot and quantified; in Figure 6D with or without HA-PRMT1

binding: binds
B1: MAPK kinase 3 (MKK3) (enzyme, human (endogenous in K562), UniProt P46734 1-347, looked up)
chain: MESPASSQPASMPQSKGKSKRKKDLRISCMSKPPAPNPTPPRNLDSRTFITIGDRNFEVEADDLVTISELGRGAYGVVEKVRHAQSGTIMAVKRIRATVNSQEQKRLLMDLDINMRTVDCFYTVTFYGALFREGDVWICMELMDTSLDKFYRKVLDKNMTIPEDILGEIAVSIVRALEHLHSKLSVIHRDVKPSNVLINKEGHVKMCDFGISGYLVDSVAKTMDAGCKPYMAPERINPELNQKGYNVKSDVWSLGITMIEMAILRFPYESWGTPFQQLKQVVEEPSPQLPADRFSPEFVDFTAQCLRKNPAERMSYLELMEHPFFTLHKTKKTDIAAFVKEILGEDS
notes: MKK3 (MAPK kinase 3), endogenous in human K562 cells, detected with anti-MKK3 (Cell Signaling #5674); source: endogenous, K562 lysate
